{
  "sequences": {"note": "The chains behind the UniProt entries cited, without tags or fusion partners. Where a name states a change or a piece, a line headed by the entry shows the natural chain unless it says otherwise.", "UniProt Q9H2M9": "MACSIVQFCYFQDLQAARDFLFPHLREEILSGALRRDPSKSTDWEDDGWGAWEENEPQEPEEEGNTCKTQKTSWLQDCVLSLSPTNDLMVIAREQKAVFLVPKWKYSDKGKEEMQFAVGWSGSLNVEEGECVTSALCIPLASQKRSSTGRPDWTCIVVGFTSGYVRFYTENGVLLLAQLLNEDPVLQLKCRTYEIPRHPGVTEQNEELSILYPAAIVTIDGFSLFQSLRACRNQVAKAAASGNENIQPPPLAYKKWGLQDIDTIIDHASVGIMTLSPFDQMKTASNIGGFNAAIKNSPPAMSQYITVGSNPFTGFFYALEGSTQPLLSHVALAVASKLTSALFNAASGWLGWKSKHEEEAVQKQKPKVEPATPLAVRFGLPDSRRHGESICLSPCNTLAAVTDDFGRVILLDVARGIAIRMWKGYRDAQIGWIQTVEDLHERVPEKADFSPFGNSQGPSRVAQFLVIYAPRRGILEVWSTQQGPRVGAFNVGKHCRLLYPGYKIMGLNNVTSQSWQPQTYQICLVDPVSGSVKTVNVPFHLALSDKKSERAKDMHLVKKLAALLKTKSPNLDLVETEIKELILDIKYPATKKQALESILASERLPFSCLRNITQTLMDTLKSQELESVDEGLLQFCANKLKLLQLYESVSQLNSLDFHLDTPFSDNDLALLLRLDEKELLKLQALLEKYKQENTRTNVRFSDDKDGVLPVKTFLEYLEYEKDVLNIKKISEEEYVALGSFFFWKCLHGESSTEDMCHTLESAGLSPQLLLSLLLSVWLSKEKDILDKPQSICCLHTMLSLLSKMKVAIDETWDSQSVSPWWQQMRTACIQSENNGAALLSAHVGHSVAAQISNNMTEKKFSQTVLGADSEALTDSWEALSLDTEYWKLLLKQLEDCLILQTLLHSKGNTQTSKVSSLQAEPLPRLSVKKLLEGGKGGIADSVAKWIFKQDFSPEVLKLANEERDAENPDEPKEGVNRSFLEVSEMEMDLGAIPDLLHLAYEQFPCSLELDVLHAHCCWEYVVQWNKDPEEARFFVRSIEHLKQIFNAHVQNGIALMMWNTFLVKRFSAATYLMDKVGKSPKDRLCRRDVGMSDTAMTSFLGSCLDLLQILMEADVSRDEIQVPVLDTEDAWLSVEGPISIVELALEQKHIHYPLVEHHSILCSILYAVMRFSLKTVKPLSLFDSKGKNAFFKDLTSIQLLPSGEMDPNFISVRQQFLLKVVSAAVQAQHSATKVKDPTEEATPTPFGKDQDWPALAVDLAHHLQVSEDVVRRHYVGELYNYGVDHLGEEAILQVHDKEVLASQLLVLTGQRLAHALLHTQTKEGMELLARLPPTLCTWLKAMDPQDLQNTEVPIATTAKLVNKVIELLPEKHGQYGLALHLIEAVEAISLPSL", "UniProt Q9BW19": "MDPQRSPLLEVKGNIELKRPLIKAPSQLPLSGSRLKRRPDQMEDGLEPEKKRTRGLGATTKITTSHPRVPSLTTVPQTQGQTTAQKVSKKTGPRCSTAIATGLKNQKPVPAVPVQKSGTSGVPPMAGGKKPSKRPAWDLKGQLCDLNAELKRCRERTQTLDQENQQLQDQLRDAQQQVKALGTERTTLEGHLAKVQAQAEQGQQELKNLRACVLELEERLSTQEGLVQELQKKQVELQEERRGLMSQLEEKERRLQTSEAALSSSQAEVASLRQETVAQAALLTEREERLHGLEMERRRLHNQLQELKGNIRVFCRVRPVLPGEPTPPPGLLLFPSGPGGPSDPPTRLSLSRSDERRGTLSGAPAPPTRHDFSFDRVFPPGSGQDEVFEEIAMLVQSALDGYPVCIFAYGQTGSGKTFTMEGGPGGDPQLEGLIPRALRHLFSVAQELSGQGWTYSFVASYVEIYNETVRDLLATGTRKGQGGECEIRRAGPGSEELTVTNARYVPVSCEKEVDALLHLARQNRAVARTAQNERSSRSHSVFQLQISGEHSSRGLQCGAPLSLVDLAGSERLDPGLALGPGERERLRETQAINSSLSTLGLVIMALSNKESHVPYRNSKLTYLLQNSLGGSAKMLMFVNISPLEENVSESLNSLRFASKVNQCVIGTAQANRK", "UniProt Q9BVQ7": "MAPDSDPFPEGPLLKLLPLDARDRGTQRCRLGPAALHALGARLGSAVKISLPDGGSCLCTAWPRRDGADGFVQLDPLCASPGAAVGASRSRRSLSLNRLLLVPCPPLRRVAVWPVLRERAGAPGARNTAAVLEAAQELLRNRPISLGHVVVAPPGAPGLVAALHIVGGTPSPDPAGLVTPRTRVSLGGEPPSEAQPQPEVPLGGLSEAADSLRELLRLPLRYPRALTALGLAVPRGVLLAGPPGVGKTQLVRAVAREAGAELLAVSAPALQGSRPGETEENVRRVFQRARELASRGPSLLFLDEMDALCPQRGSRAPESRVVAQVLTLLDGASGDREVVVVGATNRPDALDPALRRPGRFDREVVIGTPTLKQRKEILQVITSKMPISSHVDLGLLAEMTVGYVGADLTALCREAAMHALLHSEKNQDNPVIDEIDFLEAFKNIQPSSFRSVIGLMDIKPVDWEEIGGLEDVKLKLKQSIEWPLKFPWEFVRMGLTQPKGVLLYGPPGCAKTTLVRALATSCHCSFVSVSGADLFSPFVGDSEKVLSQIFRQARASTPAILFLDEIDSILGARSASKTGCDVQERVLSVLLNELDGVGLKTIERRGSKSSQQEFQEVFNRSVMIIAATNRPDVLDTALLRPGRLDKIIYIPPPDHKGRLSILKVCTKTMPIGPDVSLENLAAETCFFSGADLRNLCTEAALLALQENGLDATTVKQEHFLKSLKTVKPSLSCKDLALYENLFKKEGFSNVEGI", "UniProt Q9H1B7, whole entry, looked up": "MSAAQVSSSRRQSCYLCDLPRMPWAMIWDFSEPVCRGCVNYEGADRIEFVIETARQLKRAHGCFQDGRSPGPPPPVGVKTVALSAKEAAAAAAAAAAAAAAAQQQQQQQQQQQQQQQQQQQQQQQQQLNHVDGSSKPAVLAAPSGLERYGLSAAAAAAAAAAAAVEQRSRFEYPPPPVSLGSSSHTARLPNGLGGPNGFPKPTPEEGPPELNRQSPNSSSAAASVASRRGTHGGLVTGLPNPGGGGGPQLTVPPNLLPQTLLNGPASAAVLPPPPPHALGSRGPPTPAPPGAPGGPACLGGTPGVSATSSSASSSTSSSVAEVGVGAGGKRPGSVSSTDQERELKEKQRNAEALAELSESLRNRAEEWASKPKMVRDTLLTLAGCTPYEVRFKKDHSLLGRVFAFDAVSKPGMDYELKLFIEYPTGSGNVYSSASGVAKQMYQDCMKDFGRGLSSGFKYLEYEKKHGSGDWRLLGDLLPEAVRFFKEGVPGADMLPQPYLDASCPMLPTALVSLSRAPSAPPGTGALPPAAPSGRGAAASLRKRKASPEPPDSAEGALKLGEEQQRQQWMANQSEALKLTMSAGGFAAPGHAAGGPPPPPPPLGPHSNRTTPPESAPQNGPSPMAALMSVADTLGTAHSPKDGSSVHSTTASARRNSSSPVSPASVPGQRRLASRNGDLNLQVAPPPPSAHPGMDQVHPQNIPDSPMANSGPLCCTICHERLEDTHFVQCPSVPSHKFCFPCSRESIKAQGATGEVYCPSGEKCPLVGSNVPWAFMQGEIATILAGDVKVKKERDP", "UniProt Q9BVP2": "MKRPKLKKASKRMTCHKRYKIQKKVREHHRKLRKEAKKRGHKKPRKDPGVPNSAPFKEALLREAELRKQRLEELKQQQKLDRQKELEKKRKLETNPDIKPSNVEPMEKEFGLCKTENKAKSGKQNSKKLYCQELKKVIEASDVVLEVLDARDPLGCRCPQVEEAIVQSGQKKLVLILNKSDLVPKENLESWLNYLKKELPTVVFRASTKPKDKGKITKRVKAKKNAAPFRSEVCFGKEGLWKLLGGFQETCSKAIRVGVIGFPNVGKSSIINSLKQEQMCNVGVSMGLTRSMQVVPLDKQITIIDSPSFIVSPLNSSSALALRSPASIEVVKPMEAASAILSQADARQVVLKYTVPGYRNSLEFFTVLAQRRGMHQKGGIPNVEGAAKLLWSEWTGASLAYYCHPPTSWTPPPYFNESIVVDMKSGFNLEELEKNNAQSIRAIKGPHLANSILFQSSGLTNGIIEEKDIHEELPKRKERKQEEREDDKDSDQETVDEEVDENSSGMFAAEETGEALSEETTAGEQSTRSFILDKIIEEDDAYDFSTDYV", "UniProt Q9H2U1": "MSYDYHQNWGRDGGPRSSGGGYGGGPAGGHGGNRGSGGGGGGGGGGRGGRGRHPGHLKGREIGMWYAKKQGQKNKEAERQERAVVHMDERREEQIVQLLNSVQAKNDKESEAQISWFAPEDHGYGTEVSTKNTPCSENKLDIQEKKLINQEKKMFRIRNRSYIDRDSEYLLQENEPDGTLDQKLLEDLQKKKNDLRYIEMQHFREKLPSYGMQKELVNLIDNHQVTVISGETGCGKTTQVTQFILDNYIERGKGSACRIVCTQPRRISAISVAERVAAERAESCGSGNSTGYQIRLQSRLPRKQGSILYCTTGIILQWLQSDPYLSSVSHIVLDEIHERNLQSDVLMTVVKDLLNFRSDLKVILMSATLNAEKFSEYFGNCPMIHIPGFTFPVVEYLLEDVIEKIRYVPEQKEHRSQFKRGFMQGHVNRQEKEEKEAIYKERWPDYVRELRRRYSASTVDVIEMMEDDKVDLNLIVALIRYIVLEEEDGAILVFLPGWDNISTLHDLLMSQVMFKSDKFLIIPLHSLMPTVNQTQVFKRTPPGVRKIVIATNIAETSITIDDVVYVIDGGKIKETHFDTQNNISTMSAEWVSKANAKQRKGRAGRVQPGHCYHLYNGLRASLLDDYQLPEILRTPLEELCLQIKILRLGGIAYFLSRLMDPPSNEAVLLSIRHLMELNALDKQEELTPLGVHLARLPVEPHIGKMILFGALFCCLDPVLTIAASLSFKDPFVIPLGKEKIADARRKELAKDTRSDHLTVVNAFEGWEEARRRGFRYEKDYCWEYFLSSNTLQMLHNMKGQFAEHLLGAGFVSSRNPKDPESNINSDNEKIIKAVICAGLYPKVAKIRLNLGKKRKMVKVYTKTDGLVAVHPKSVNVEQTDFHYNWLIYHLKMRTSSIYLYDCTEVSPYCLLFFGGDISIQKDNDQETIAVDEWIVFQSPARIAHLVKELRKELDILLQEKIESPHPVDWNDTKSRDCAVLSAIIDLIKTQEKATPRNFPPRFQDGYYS", "UniProt Q9C0J8": "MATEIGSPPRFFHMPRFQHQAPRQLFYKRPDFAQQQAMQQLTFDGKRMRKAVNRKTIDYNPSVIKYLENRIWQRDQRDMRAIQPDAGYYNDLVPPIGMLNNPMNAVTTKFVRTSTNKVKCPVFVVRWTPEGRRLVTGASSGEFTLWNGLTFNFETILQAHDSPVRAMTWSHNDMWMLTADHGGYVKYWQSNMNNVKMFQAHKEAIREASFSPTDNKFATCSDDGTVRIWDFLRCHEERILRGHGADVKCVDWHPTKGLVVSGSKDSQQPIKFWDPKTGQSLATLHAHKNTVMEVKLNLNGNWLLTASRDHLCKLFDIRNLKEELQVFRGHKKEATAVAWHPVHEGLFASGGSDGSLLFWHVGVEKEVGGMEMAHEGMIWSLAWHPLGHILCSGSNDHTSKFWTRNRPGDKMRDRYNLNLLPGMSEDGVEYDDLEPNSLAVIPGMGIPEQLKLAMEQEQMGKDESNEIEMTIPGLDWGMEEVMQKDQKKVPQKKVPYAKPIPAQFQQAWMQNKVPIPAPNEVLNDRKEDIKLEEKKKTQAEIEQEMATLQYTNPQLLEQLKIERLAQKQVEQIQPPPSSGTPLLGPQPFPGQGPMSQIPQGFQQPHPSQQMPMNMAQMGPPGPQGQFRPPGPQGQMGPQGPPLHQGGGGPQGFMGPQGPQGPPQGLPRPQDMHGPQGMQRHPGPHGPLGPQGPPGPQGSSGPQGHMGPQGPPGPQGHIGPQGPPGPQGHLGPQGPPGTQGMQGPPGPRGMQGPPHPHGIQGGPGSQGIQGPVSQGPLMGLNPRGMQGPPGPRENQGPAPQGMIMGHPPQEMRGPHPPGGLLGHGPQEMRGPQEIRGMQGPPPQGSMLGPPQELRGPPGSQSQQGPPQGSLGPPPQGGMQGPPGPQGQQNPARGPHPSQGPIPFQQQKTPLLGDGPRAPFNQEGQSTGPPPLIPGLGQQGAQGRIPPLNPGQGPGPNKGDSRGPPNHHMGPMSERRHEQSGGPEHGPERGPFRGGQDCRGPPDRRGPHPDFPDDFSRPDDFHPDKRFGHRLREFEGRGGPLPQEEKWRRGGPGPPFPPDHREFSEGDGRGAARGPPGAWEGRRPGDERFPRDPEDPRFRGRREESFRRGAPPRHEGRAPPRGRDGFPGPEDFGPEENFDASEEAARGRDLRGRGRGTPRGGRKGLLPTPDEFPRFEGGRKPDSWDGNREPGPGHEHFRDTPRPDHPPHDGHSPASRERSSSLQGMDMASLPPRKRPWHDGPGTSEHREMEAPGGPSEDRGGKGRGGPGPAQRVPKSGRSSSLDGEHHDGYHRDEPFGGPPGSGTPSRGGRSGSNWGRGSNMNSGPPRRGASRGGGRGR"},
  "source": "the supplement of paper PMC11006884",
  "note": "The entries are a selection whose mix differs from that of the whole data set.",
  "data": [
    {"compound": "COC(=O)C#Cc1ccccc1 [methyl 3-phenylpropiolate]", "assay": "log2 ratio of iodoacetamide-alkyne labeling of the cysteine site, DMSO over compound (competition); higher = stronger covalent engagement of the cysteine by the compound, active = 1 or more", "conditions": "500 µM; treatment time 1 h; system: HEK293T cell lysate", "outline": "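Electrophile (500 µM) or vehicle was added to HEK293T lysate (2 mg/mL) for 1 h at ambient temperature before iodoacetamide alkyne labelling (1 h) and click coupling to sCIP-TMT reagents. After pooling, overnight trypsin digestion at 37 °C, streptavidin enrichment and acid elution, peptides were measured by Orbitrap Eclipse LC-MS/MS with FAIMS and quantified in FragPipe. Each cysteine's log2 competition ratio compares mean control-channel with mean compound-channel reporter intensity, control over compound. Data came from duplicate channels across three replicates, excluding cysteines quantified in only one replicate.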", "values": [
      {"target": "SETD2 C714 (UniProt Q9BYW2)", "log2 ratio of iodoacetamide-alkyne labeling": "inactive: 0.797"},
      {"target": "RAB3GAP2 C67 (UniProt Q9H2M9)", "log2 ratio of iodoacetamide-alkyne labeling": "inactive: 0.306"},
      {"target": "UniProt Q9BSH4_C256", "log2 ratio of iodoacetamide-alkyne labeling": "inactive: -0.207"},
      {"target": "KIFC1 C557 (UniProt Q9BW19)", "log2 ratio of iodoacetamide-alkyne labeling": "inactive: 0.0199"},
      {"target": "TUBB6 C124 (UniProt Q9BUF5)", "log2 ratio of iodoacetamide-alkyne labeling": "inactive: 0.874"},
      {"target": "SPATA5L1 C78 (UniProt Q9BVQ7)", "log2 ratio of iodoacetamide-alkyne labeling": "inactive: 0.204"},
      {"target": "POLDIP3 C301 (UniProt Q9BY77)", "log2 ratio of iodoacetamide-alkyne labeling": "inactive: -0.32"},
      {"target": "UniProt Q9H1B7_C385", "log2 ratio of iodoacetamide-alkyne labeling": "inactive: 0.164"},
      {"target": "TUBB6 C12 (UniProt Q9BUF5)", "log2 ratio of iodoacetamide-alkyne labeling": "inactive: 0.0468"},
      {"target": "KLC2 C441 (UniProt Q9H0B6)", "log2 ratio of iodoacetamide-alkyne labeling": "inactive: 0.624"},
      {"target": "GNL3 C234 (UniProt Q9BVP2)", "log2 ratio of iodoacetamide-alkyne labeling": "inactive: 0.259"},
      {"target": "SETD2 C900 (UniProt Q9BYW2)", "log2 ratio of iodoacetamide-alkyne labeling": "inactive: 0.402"},
      {"target": "SLC4A1AP C336 (UniProt Q9BWU0)", "log2 ratio of iodoacetamide-alkyne labeling": "inactive: 0.256"},
      {"target": "DHX36 C135 (UniProt Q9H2U1)", "log2 ratio of iodoacetamide-alkyne labeling": "inactive: 0.652"},
      {"target": "WDR33 C120 (UniProt Q9C0J8)", "log2 ratio of iodoacetamide-alkyne labeling": "inactive: 0.575"}
    ]}
  ]
}
